Results taken from paper PMC8541776.
Results are given in words; binding and its absence hold for the method and conditions named. Binding can be weak; no strength is given. Tags and fused reporters may be left off the sequences shown. For some of these results: In cells and extracts the contact can be indirect. Values belong to the binder of their own block, whether it stands above or below them.

Amino acid sequences for entries named in this document (tags omitted). A change or cut given only in a name is not applied to a line headed by its entry.
UniProt Q10ED2: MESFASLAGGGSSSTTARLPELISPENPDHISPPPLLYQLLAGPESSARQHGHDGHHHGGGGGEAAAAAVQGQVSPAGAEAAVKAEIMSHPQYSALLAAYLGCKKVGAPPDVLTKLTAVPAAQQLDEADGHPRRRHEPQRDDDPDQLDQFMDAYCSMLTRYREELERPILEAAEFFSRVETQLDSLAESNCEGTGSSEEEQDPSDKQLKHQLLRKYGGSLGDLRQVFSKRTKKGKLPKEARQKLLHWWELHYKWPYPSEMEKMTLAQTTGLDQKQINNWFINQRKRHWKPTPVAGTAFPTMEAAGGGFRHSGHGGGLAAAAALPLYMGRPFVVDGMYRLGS

Key:
[1] = biological target: HOX domain of OSH1 fused to the GAL4 binding domain (rice (Oryza sativa)); test: two-hybrid; GAL4 system in S. cerevisiae AH109; KNOX class 1 proteins (and truncated OSH1) on pGBKT7 (BD), SLR1 (full length and truncated) on pGADT7 (AD); selection on SD/-Trp/-Leu/-His/-Ade
[2] = biological target: KNOX 1 domain of OSH1 fused to the GAL4 binding domain (rice (Oryza sativa)); test: as above
[3] = biological target: OSH43 fused to the N-terminal luciferase domain (nLuc) (rice (Oryza sativa), Nipponbare) (UniProt Q10ED2); test: split reporter; split-luciferase: KNOX class 1 proteins with nLuc, SLR1 with cLuc, in tobacco leaves by Agrobacterium; CCD imaging after 36 h in the dark
[4] = biological target: OSH43 fused to the N-terminal region of YFP (nYFP) (rice (Oryza sativa)); test: split reporter; BiFC: SLR1-cYFP and KNOX-nYFP co-infiltrated by Agrobacterium GV3101 into N. benthamiana leaves; YFP read by confocal microscopy after 48 h

binding [1]: binds
binding [2]: binds
B1: C-terminal GRAS domain of SLR1 fused to the GAL4 activation domain (domain or fragment, UniProt Q7G7J6 232-621)
chain: VDTQEAGIRLVHALLACAEAVQQENFAAAEALVKQIPTLAASQGGAMRKVAAYFGEALARRVYRFRPADSTLLDAAFADLLHAHFYESCPYLKFAHFTANQAILEAFAGCHRVHVVDFGIKQGMQWPALLQALALRPGGPPSFRLTGVGPPQPDETDALQQVGWKLAQFAHTIRVDFQYRGLVAATLADLEPFMLQPEGEADANEEPEVIAVNSVFELHRLLAQPGALEKVLGTVHAVRPRIVTVVEQEANHNSGSFLDRFTESLHYYSTMFDSLEGGSSGQAELSPPAAGGGGGTDQVMSEVYLGRQICNVVACEGAERTERHETLGQWRNRLGRAGFEPVHLGSNAYKQASTLLALFAGGDGYRVEEKEGCLTLGWHTRPLIATSAWR

binding [3]: binds
B2: SLR1 fused to the C-terminal luciferase domain (cLuc) (protein, UniProt Q7G7J6 1-625)
chain: MKREYQEAGGSSGGGSSADMGSCKDKVMAGAAGEEEDVDELLAALGYKVRSSDMADVAQKLEQLEMAMGMGGVSAPGAADDGFVSHLATDTVHYNPSDLSSWVESMLSELNAPLPPIPPAPPAARHASTSSTVTGGGGSGFFELPAAADSSSSTYALRPISLPVVATADPSAADSARDTKRMRTGGGSTSSSSSSSSSLGGGASRGSVVEAAPPATQGAAAANAPAVPVVVVDTQEAGIRLVHALLACAEAVQQENFAAAEALVKQIPTLAASQGGAMRKVAAYFGEALARRVYRFRPADSTLLDAAFADLLHAHFYESCPYLKFAHFTANQAILEAFAGCHRVHVVDFGIKQGMQWPALLQALALRPGGPPSFRLTGVGPPQPDETDALQQVGWKLAQFAHTIRVDFQYRGLVAATLADLEPFMLQPEGEADANEEPEVIAVNSVFELHRLLAQPGALEKVLGTVHAVRPRIVTVVEQEANHNSGSFLDRFTESLHYYSTMFDSLEGGSSGQAELSPPAAGGGGGTDQVMSEVYLGRQICNVVACEGAERTERHETLGQWRNRLGRAGFEPVHLGSNAYKQASTLLALFAGGDGYRVEEKEGCLTLGWHTRPLIATSAWRVAAA

binding [4]: binds
B3: SLR1 fused to the C-terminal region of YFP (SLR1-cYFP) (protein, UniProt Q7G7J6 1-625)
chain: MKREYQEAGGSSGGGSSADMGSCKDKVMAGAAGEEEDVDELLAALGYKVRSSDMADVAQKLEQLEMAMGMGGVSAPGAADDGFVSHLATDTVHYNPSDLSSWVESMLSELNAPLPPIPPAPPAARHASTSSTVTGGGGSGFFELPAAADSSSSTYALRPISLPVVATADPSAADSARDTKRMRTGGGSTSSSSSSSSSLGGGASRGSVVEAAPPATQGAAAANAPAVPVVVVDTQEAGIRLVHALLACAEAVQQENFAAAEALVKQIPTLAASQGGAMRKVAAYFGEALARRVYRFRPADSTLLDAAFADLLHAHFYESCPYLKFAHFTANQAILEAFAGCHRVHVVDFGIKQGMQWPALLQALALRPGGPPSFRLTGVGPPQPDETDALQQVGWKLAQFAHTIRVDFQYRGLVAATLADLEPFMLQPEGEADANEEPEVIAVNSVFELHRLLAQPGALEKVLGTVHAVRPRIVTVVEQEANHNSGSFLDRFTESLHYYSTMFDSLEGGSSGQAELSPPAAGGGGGTDQVMSEVYLGRQICNVVACEGAERTERHETLGQWRNRLGRAGFEPVHLGSNAYKQASTLLALFAGGDGYRVEEKEGCLTLGWHTRPLIATSAWRVAAA
